The record followed here is article PMC6643436.

The test system of this data set is CDYL (recombinant, Abnova H00009425-P01). The data set is described as follows: EMSA. As to conditions: 60 fmol labelled probe, 5 uL recombinant CDYL (or SCLC nuclear proteins), 20 min at 20 C, 6% polyacrylamide gel at 4 C; salt and pH not stated; commercial protein.

The exact form of at least one protein or probe is not confirmed.

On to “GGGCCCGGAACTCACGACCCCCGACAGCGGTCTCCCCCGCCCCCCCAACCCCG (double strand) [CDKN1C promoter EMSA probe]”, for which the binding result was “binds”.
